Test results taken from the supplement of paper PMC3545927.
The list shows a part of the results, in another mix than the full data.

The chains behind the UniProt entries cited, without tags or fusion partners.
furin, P09958, UniProt P09958, whole entry: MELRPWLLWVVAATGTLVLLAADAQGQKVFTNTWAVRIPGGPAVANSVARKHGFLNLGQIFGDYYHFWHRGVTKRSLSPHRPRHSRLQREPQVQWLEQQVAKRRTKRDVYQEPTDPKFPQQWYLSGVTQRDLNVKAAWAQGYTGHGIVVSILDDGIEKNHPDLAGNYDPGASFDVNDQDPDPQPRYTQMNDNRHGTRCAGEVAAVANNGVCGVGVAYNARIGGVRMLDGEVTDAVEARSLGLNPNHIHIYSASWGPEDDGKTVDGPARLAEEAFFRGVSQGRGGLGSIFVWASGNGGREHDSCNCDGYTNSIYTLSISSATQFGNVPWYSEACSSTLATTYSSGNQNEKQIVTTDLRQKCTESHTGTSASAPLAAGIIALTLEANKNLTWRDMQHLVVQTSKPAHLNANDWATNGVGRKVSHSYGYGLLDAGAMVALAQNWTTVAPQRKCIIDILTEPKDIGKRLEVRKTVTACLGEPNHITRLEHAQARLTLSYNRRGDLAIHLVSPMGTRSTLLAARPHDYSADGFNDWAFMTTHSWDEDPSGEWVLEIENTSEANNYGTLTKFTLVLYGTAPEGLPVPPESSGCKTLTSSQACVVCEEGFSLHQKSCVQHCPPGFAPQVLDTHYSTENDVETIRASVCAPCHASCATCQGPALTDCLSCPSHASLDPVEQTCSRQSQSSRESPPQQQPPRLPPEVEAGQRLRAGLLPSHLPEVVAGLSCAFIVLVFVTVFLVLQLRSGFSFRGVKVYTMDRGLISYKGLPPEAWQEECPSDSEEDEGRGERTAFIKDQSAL

Target: furin, P09958
Experiment: furin cleavage Z-score vs untreated control; higher = more cleavage, active = 3.5 or more, inactive = 1 or less, 8 variable residues between constant flanks
Outline: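 Sequencing of released DNA, tagged with adapters by PCR, gave read counts used as abundance. That DNA was freed when purified furin cut N-terminally bead-bound 8-mer peptides fused to a cDNA oligonucleotide, in 0.01 ml reactions at 1:10 enzyme:substrate in 50 mM HEPES pH 7.5 with CaCl2 and NaCl, lasting 7.5, 15 or 30 min. The cleavage Z-score was the lowess-adjusted log count versus furin-free reactions, scaled by median absolute deviation.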

Sequence: CARQQREARGAGNASASA [FS-2760]
- furin cleavage Z-score (7.5 min): 2.26
- furin cleavage Z-score (15 min): 2.04
- furin cleavage Z-score (30 min): 2.68

Sequence: CALAALAAYCAGNASASA [HC994]
- furin cleavage Z-score (7.5 min): inactive: 0.554
- furin cleavage Z-score (15 min): 1.14
- furin cleavage Z-score (30 min): inactive: 0.545

Sequence: CARRKRQVYGAGNASASA [FS-3204]
- furin cleavage Z-score (7.5 min): active: 6.12
- furin cleavage Z-score (15 min): active: 7.43
- furin cleavage Z-score (30 min): active: 7.08

Sequence: CAKTRRSVDGAGNASASA [FS-2248]
- furin cleavage Z-score (7.5 min): active: 6.46
- furin cleavage Z-score (15 min): active: 7.09
- furin cleavage Z-score (30 min): active: 5.86

Sequence: CADAELIEANAGNASASA [HC1272]
- furin cleavage Z-score (7.5 min): 1.56
- furin cleavage Z-score (15 min): 1.04
- furin cleavage Z-score (30 min): inactive: 0.698

Sequence: CARSKKAVDWAGNASASA [FS-2378]
- furin cleavage Z-score (7.5 min): 2.03
- furin cleavage Z-score (15 min): 1.69
- furin cleavage Z-score (30 min): 2.98

Sequence: CALRRRCQRDAGNASASA [FS-459]
- furin cleavage Z-score (7.5 min): active: 9.61
- furin cleavage Z-score (15 min): active: 9.12
- furin cleavage Z-score (30 min): active: 7.39

Sequence: CADQKRSLESAGNASASA [FS-2246]
- furin cleavage Z-score (7.5 min): inactive: -0.764
- furin cleavage Z-score (15 min): inactive: -1.16
- furin cleavage Z-score (30 min): inactive: -0.0942

Sequence: CAFSSRWGRGAGNASASA [FS-1523]
- furin cleavage Z-score (7.5 min): inactive: -2.35
- furin cleavage Z-score (15 min): inactive: 0.914
- furin cleavage Z-score (30 min): inactive: -0.211

Sequence: CARSKRQEGVAGNASASA [FS-1972]
- furin cleavage Z-score (7.5 min): 1.79
- furin cleavage Z-score (15 min): 2.77
- furin cleavage Z-score (30 min): 2.39

Sequence: CARQIRTVIQAGNASASA [FS-2748]
- furin cleavage Z-score (7.5 min): 1.04
- furin cleavage Z-score (15 min): 1.82
- furin cleavage Z-score (30 min): 1.22

Sequence: CAQLSRAGRSAGNASASA [FS-81]
- furin cleavage Z-score (7.5 min): active: 6.21
- furin cleavage Z-score (15 min): active: 8.4
- furin cleavage Z-score (30 min): active: 8.08

Sequence: CAHERRMKRFAGNASASA [FS-791]
- furin cleavage Z-score (7.5 min): active: 10
- furin cleavage Z-score (15 min): active: 11.5
- furin cleavage Z-score (30 min): active: 9.74

Sequence: CARQRRSELGAGNASASA [FS-1917]
- furin cleavage Z-score (7.5 min): 2.3
- furin cleavage Z-score (15 min): 2.46
- furin cleavage Z-score (30 min): 2.2

Sequence: CARRQRLHRFAGNASASA [FS-919]
- furin cleavage Z-score (7.5 min): 2.12
- furin cleavage Z-score (15 min): 2.12
- furin cleavage Z-score (30 min): 3.3

Sequence: CAMWSGTFPIAGNASASA [HC1188]
- furin cleavage Z-score (7.5 min): 1.39
- furin cleavage Z-score (15 min): 1.22
- furin cleavage Z-score (30 min): 1.33

Sequence: CANFSRCKRGAGNASASA [FS-553]
- furin cleavage Z-score (7.5 min): 2.22
- furin cleavage Z-score (15 min): 2.06
- furin cleavage Z-score (30 min): 2.15

Sequence: CASSGCPERLAGNASASA [HC385]
- furin cleavage Z-score (7.5 min): inactive: -0.122
- furin cleavage Z-score (15 min): inactive: -0.598
- furin cleavage Z-score (30 min): inactive: 0.353

Sequence: CAQKPRNKKSAGNASASA [FS-1151]
- furin cleavage Z-score (7.5 min): 1.11
- furin cleavage Z-score (15 min): 2.12
- furin cleavage Z-score (30 min): 1.96

Sequence: CAKKMRNKRNAGNASASA [FS-42]
- furin cleavage Z-score (7.5 min): active: 10.5
- furin cleavage Z-score (15 min): active: 10.9
- furin cleavage Z-score (30 min): active: 9.3

Sequence: CAEVPCHRRSAGNASASA [HC2393]
- furin cleavage Z-score (7.5 min): 1.85
- furin cleavage Z-score (15 min): 1.7
- furin cleavage Z-score (30 min): 1.09

Sequence: CARVPRSVPRAGNASASA [FS-2103]
- furin cleavage Z-score (7.5 min): 2.17
- furin cleavage Z-score (15 min): 2.66
- furin cleavage Z-score (30 min): 3.13

Sequence: CALLFNILGGAGNASASA [HC1064]
- furin cleavage Z-score (7.5 min): inactive: -0.771
- furin cleavage Z-score (15 min): inactive: -1.63
- furin cleavage Z-score (30 min): inactive: -1.52

Sequence: CATKLLLAVFAGNASASA [HC605]
- furin cleavage Z-score (7.5 min): 1.92
- furin cleavage Z-score (15 min): 3.24
- furin cleavage Z-score (30 min): inactive: 0.635

Sequence: CAEVPCHRPRAGNASASA [HC2413]
- furin cleavage Z-score (7.5 min): 2.06
- furin cleavage Z-score (15 min): 1.28
- furin cleavage Z-score (30 min): 1.44

Sequence: CASTQRLRRGAGNASASA [FS-1169]
- furin cleavage Z-score (7.5 min): 2.79
- furin cleavage Z-score (15 min): 2.27
- furin cleavage Z-score (30 min): 2.38

Sequence: CAVGPRTCRNAGNASASA [HC1184]
- furin cleavage Z-score (7.5 min): 2.39
- furin cleavage Z-score (15 min): 3
- furin cleavage Z-score (30 min): 2.94

Sequence: CALTPCSAHLAGNASASA [HC2465]
- furin cleavage Z-score (7.5 min): 2.29
- furin cleavage Z-score (15 min): 1.86
- furin cleavage Z-score (30 min): 1.34

Sequence: CAGKRRSRRQAGNASASA [FS-1456]
- furin cleavage Z-score (7.5 min): active: 9.9
- furin cleavage Z-score (15 min): active: 10.6
- furin cleavage Z-score (30 min): active: 6.67

Sequence: CAGTHRIMRDAGNASASA [FS-437]
- furin cleavage Z-score (7.5 min): 1.29
- furin cleavage Z-score (15 min): 1.53
- furin cleavage Z-score (30 min): 2.69

Sequence: CAPARRARRGAGNASASA [FS-470]
- furin cleavage Z-score (7.5 min): 3.47
- furin cleavage Z-score (15 min): 2.74
- furin cleavage Z-score (30 min): 2.76

Sequence: CAKRLRRRREAGNASASA [FS-1224]
- furin cleavage Z-score (7.5 min): active: 6.7
- furin cleavage Z-score (15 min): active: 5.88
- furin cleavage Z-score (30 min): active: 4.7

Sequence: CAKRRRSSKDAGNASASA [FS-344]
- furin cleavage Z-score (7.5 min): 2.04
- furin cleavage Z-score (15 min): 3.21
- furin cleavage Z-score (30 min): 3.03

Sequence: CAPGYPWPLYAGNASASA [HC200]
- furin cleavage Z-score (7.5 min): 2.88
- furin cleavage Z-score (15 min): 1.98
- furin cleavage Z-score (30 min): 1.47

Sequence: CAPSKRGNSTAGNASASA [FS-2877]
- furin cleavage Z-score (7.5 min): inactive: -0.745
- furin cleavage Z-score (15 min): inactive: -0.0005
- furin cleavage Z-score (30 min): inactive: 0.164

Sequence: CAAAVTSPLTAGNASASA [HC1058]
- furin cleavage Z-score (7.5 min): inactive: 0.302
- furin cleavage Z-score (15 min): inactive: -1.38
- furin cleavage Z-score (30 min): inactive: -0.302

Sequence: CAVKSRKRRKAGNASASA [FS-149]
- furin cleavage Z-score (7.5 min): active: 11
- furin cleavage Z-score (15 min): active: 11.7
- furin cleavage Z-score (30 min): active: 8.76

Sequence: CASSNQLQRRAGNASASA [NG1]
- furin cleavage Z-score (7.5 min): inactive: 0.397
- furin cleavage Z-score (15 min): 2.01
- furin cleavage Z-score (30 min): inactive: -0.568
